System: proteins in oral lavage
Assay: Abundance of proteins in human oral lavage (SomaLogic), TABLE 1
Assay type: in vivo
Details: for Means (Original Scale) High bleeder BL: high bleeders (gingivitis); for Means (Original Scale) High bleeder BL / Means (Original Scale) Low bleeder BL: baseline; for Means (Original Scale) Low bleeder BL: low bleeders (healthy); for Fold Change High bleeder BL vs Low bleeder BL / Fold Change High bleeder W4 vs High bleeder BL: oral lavage
[1] = abundance in oral lavage, high bleeders, week 4 of investigative products
[2] = high bleeders vs low bleeders at baseline
[3] = week 4 of investigative products vs baseline, high bleeders
[4] = high bleeders, week 4 of treatment vs baseline
[5] = high vs low bleeders at baseline

Substance	Means (Original Scale) High bleeder BL (abundance in oral lavage)	Means (Original Scale) High bleeder W4 [1]	Means (Original Scale) Low bleeder BL (abundance in oral lavage)	Fold Change High bleeder BL vs Low bleeder BL [2]	Fold Change High bleeder W4 vs High bleeder BL [3]	Fold Change High bleeder W4 vs High bleeder BL [4]	Fold Change High bleeder BL vs Low bleeder BL [5]	Means (Original Scale) High bleeder W4 (in vivo, po)
N-acetyl-D-glucosamine kinase	2839	1570	283	12.44	0.48			
14-3-3 protein theta	5344	2603	838	5.73	0.57			
Drebrin-like protein	2088	1305	809	2.37	0.67			
Osteocalcin (YLYQWLGAPVPYPDPLEPRREVCELNPDCDELADHIGFQEAYRRFYGPV; UniProt P02818 52-100, looked up)	3206	1808	986	3.38	0.63			
Small ubiquitin-related modifier 3	42271	24878	15775			0.63	3.03	
Plasminogen activator inhibitor 1	100	67	39			0.72	2.40	
Insulin-like growth factor-binding protein 5	36296	21609	13120	2.49	0.65			
Granulocyte-macrophage colony-stimulating factor	3974	2161	1747	2.41	0.61			
Signal transducer and activator of transcription 3	5042	2798	554			0.60	9.28	
Platelet factor 4	405	200	131			0.61	2.33	
Lumican	35877	11354	5119	6.31	0.42			
Heat shock 70 kDa protein 1A	87728	63420	16620	6.33	0.67			
Peptidyl-prolyl cis-trans isomerase F, mitochondrial	9535	4115	534			0.58	17.73	
Chitotriosidase-1	58999	41470	14176	7.00	0.70			
Interleukin-1 Receptor accessory protein	5433	2418	1501	3.72	0.52			
Trypsin-1	1882	1012	423			0.61	3.94	
Neutrophil collagenase	21211	4713	9187	2.96	0.48			
Epidermal growth factor	40558	18414	4786	18.15	0.55			
High affinity nerve growth factor receptor	919	590	428	2.06	0.67			
SUMO-conjugating enzyme UBC9	69920	44705	14235			0.68	6.93	
Serine/threonine-protein kinase 16	350	231	138			0.73	2.31	
Mitogen-activated protein kinase 14	5862	3068	596	15.65	0.60			
Neuregulin-1	251	142	107	2.07	0.60			
Tyrosine-protein phosphatase non-receptor type substrate 1	5104		670			0.66	12.44	3229
Mitogen-activated protein kinase 9	2969	1342	1367	1.74	0.57			
Interleukin-1 beta	397	228	152	2.54	0.60			
Cofilin-1	1143	622	254	3.94	0.62			
Hemopexin	2677	1383	662	6.00	0.64			

From patent publication US20180320217A1, “METHODS FOR SAMPLING AND MEASURING ORAL LAVAGE PROTEINS” (The Procter & Gamble Company, priority 2017, published 2018)
